From PubChem BioAssay AID588342 (National Center for Advancing Translational Sciences (NCATS), 2011)
The entries are a selection whose mix differs from that of the whole data set. Results filed as inconclusive are left out. Calls of active or inactive are those of the source. Calls come from the whole dose curve; as a rule, active = well fitted inhibition curve with a large enough effect; inconclusive = small, poorly fitted or top-dose-only effect; inactive = flat fitted curve, though single readings scatter.

The chains behind the UniProt entries cited, without tags or fusion partners.
UniProt P08659, whole entry, looked up: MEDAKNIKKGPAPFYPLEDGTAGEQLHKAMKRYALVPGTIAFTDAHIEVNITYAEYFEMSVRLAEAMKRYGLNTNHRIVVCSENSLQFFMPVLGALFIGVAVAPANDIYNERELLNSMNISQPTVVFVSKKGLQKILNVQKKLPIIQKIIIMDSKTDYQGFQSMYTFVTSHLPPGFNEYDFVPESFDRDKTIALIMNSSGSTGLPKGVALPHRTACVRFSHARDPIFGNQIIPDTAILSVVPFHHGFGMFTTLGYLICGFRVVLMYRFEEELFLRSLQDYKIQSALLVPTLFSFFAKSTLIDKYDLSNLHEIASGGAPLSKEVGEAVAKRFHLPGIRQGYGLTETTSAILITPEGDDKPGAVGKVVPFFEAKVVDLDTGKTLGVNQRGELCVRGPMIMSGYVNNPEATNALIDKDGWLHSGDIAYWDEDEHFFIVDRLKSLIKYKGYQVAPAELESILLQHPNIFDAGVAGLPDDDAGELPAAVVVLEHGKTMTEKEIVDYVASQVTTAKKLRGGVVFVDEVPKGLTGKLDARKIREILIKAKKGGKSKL

The compounds below were run against Luciferin 4-monooxygenase (Photinus pyralis) (UniProt P08659) (assay: qHTS profiling assay for firefly luciferase inhibitor/activator using purifed enzyme and Km concentrations of substrates (counterscreen for miR-21 project)). Conditions: purified FLuc, luminescence inhibition.
Source text: MLPCN Grant: 1 R21 NS059478-01 (miR-21 grant) Assay Provider: NCGC NCGC Assay Overview: Firefly (Photinus pyralis) luciferase is one of the most commonly used transcriptional reporters for a number of reasons. It is considered one of the more dynamically responsive reporters -that is, responsive to changes in reporter transcription - as it requires no post-translational modifications and is enzymatically active directly after protein synthesis (Wood, 1998). Additionally, the half-life of the luciferase protein is short relative to other reporter-gene products (Wood, 1995). […] Although light produced in a bioluminescence reaction is of lower intensity than that produced during fluorescence emission, this is offset by little to no background light inherent to luminescent assays. […] Accumulated intracellular FLuc protein can be measured as an increase in luminescence signal, upon addition of detection reagents (which contain high concentrations of FLuc substrates) commonly used in high-throughput screening. In cell-based reporter gene assays that use FLuc as the reporter gene to quantitate the potential influence of a given compound against the target biology, this apparent increase in luminescence can mistakenly be interpreted as identification of a compound that is active against the target of interest. […]
Note: nearly all actives have a fitted effect of over 55% in size.

SMILES	Potency
Cc1cc(=O)oc2cc(OCc3ccccc3)ccc12	active: 7.57 µM
O=c1ccc2ccc(OCc3ccccc3)cc2o1	active: 12 µM
